Reference: PMC8384837
This is one part of the list. The source does not settle which construct or isoform was used.

Biological target: T1, PUM1 PUF domain R5-PHQ R6-SWD C1007P + R1008H + N1043S + Y1044W + Q1047D (UniProt Q14671)
T1 sequence: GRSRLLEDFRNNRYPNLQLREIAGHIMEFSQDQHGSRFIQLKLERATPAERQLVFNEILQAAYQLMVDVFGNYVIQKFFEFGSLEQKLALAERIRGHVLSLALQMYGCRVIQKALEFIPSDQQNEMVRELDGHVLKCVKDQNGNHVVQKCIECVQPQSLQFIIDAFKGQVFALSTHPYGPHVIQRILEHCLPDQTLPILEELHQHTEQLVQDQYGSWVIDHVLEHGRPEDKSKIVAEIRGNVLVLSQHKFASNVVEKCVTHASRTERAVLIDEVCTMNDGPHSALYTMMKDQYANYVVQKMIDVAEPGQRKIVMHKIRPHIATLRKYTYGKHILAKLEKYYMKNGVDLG
Details: yeast three-hybrid, YBZ-1, SC-Leu-His + 0.5 mM 3-AT, 4 days

Sequence: GGCUAGAACUAGUGGAUCCCCCGGCGCCCGGCGGCUCGAGCCCGGGUAAGUGGACAAAGUCUGCAUGCCGCCGGGCGCCAUGCCUGCAGGUCGACUCUAGAAAACAUG
- binding signal (log2 enrichment (interaction score)): -6.81

Sequence: GGCUAGAACUAGUGGAUCCCCCGGCGCCCGGCGGCUCGAGCCCGGGUAAGUUGUAACCGUCUGCAUGCCGCCGGGCGCCAUGCCUGCAGGUCGACUCUAGAAAACAUG
- binding signal (log2 enrichment (interaction score)): < -7.36

Sequence: GGCUAGAACUAGUGGAUCCCCCGGCGCCCGGCGGCUCGAGCCCGGGUAAGUGCAACUGGUCUGCAUGCCGCCGGGCGCCAUGCCUGCAGGUCGACUCUAGAAAACAUG
- binding signal (log2 enrichment (interaction score)): -7.13

Sequence: GGCUAGAACUAGUGGAUCCCCCGGCGCCCGGCGGCUCGAGCCCGGGUAAGGGUAAAGAGUCUGCAUGCCGCCGGGCGCCAUGCCUGCAGGUCGACUCUAGAAAACAUG
- binding signal (log2 enrichment (interaction score)): -7.26
